Results are given in words; binding and its absence hold for the method and conditions named. Binding calls can cover weak binding; strength is not graded here. Where a sequence is shown, tags or fusion partners need not be part of it. For part of these data: Binding seen in cells or lysates may run through a third protein.

The source of these data is paper PMC11835332.

The target of experiment [1] is T1, His-HSCA2-Myc (without the mitochondrial targeting peptide) (Arabidopsis) (UniProt Q9LDZ0).
T1 sequence: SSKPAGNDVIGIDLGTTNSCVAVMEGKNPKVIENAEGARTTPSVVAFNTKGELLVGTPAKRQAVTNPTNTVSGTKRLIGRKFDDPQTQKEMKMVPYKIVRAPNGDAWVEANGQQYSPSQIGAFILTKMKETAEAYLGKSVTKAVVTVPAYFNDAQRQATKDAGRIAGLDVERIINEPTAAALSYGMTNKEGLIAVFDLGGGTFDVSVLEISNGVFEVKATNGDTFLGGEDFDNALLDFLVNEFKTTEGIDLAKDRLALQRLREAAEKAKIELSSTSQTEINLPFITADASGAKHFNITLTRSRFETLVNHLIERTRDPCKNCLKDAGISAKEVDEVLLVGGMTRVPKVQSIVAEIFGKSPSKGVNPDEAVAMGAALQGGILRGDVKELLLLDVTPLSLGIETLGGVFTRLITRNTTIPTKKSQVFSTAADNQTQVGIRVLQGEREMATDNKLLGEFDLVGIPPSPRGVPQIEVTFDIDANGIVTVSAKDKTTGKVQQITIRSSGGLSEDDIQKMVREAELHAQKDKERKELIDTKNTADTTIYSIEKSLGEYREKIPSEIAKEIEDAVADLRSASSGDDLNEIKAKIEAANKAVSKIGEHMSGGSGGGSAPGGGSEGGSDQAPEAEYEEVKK
Description: native gel or EMSA; BN-PAGE (5%-13%) then SDS-PAGE in the second dimension; about 10 ug of each protein in 200 uL, 4°C one hour; 50 mM Tris-HCl pH 7.4, 50 mM NaCl, 10 mM KCl, 0.1% Tween-20, 100 uM ATP; anti-Myc blot; both purified. On the technique in general: A gel shift assay detects complexes by their altered migration in electrophoresis.

Experiment [2] addresses His-SSR1-Myc (without the mitochondrial targeting peptide) (Arabidopsis). As to the kind of experiment: pull-down; Ni Sepharose; about 10 ug purified His-tagged HSCA2, HSCA2^G87D or SSR1 with BL21(DE3) lysates expressing SSR1, ISU1 or ISU1^T55M without His-tag, 1 hour at 4°C; anti-Myc blot; only the target purified.
The target in experiment [3] is SSR1-Flag (Flag-tagged full-length SSR1 under the CaMV 35S promoter) (Arabidopsis). Description: co-IP; extracts of 12-day-old transgenic seedlings with 35Spro:SSR1-Flag and HSCA2pro:HSCA2-Myc; anti-Flag (DYKDDDDK Isolation Kit, Miltenyi) precipitation; blots with anti-Myc and anti-ISU.
Experiment [4] addresses His-SSR1-Myc (without the mitochondrial targeting peptide) (Arabidopsis). As to the kind of experiment: native gel or EMSA; BN-PAGE (5%-13%) then SDS-PAGE in the second dimension; about 10 ug of each protein in 200 uL, 4°C one hour; 50 mM Tris-HCl pH 7.4, 50 mM NaCl, 10 mM KCl, 0.1% Tween-20, 100 uM ATP; anti-Myc blot; both purified.
Experiment [5] has the same target. As to the kind of experiment: pull-down; Ni Sepharose; purified His-tagged baits with purified tag-excised preys (about 10 ug each in 200 uL), with or without SSR1-Myc; 50 mM Tris-HCl pH 7.4, 50 mM NaCl, 10 mM KCl, 0.1% Tween-20; 4°C; anti-Myc blot; both purified.

“His-SSR1-Myc (without the mitochondrial targeting peptide) (Arabidopsis)”: the binding result in experiment [1] is listed as “binds”.

B1: ISU1-Myc expressed without His-tag, in E. coli lysate (without the mitochondrial targeting peptide) (protein, UniProt O49627 51-167)
chain: PNVGTGLVGAPACGDVMKLQIKVDEKTGQIVDARFKTFGCGSAIASSSVATEWVKGKAMEDVLTIKNTEIAKHLSLPPVKLHCSMLAEDAIKAAVKDYKEKRVKTNGAAAAGETTQA
On to B1, for which the binding entry in experiment [2] is on record as “binds”.

B2: ISU1, endogenous (detected with anti-ISU antibody) (protein, UniProt O49627 51-167)
chain: B1 chain
Consider B2, for which the binding result in experiment [3] is given as “binds”.

B3: ISU1-Myc, purified, His-tag excised (without the mitochondrial targeting peptide) (protein, UniProt O49627 51-167)
chain: B1 chain
Regarding B3, the binding result in experiment [4] and in experiment [5] was “binds” throughout.

B4: HSCA2-Myc (Myc-tagged full-length HSCA2 under its native promoter) (protein, UniProt Q9LDZ0 51-682)
chain: T1 sequence
On to B4, for which, in experiment [3], the binding entry is “binds”.
